Data as given in PubChem BioAssay AID743458 (Peter MacCallum Cancer Centre, 2014).
Shown is one part, drawn at random, of about 1,800 reagents. 732 of them (41%) were called active. 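Calls are per siRNA reagent; a gene was deemed confirmed only if most of its four siRNAs scored.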 Entries without a mark were called inactive. The numbers tell different reagents against one gene apart.

- Aim: 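Retest earlier hits with independent siRNAs per gene for restoring vorinostat sensitivity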 (follow-up of hits)
- Cell system: human HCT116-VR colon cancer cells made resistant to vorinostat
- Knock-down reagent: single siRNA or pool against human genes, 25 nM per single siRNA
- Timing: about 72 h after transfection, including 24 h of drug
- Conditions: vorinostat, 2.5 µM final, for 24 h
- Read-out: 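Cell viability by fluorescence and apoptosis by caspase 3/7 luminescence under vorinostat, background-corrected, averaged across two plate copies and given as fold change versus mock transfection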
- Direction: viability relative to mock: higher = more living cells than mock; caspase activity relative to mock: higher = more apoptosis than mock
- Call rule: 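Active means a reduced-viability or caspase-activation class, anything else inactive; classes could only be given to wells that looked healthy when left untreated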

gene | reagent no. | viability relative to mock | caspase activity relative to mock | viability hit class | caspase hit class
UBE2Q1 (ubiquitin conjugating enzyme E2 Q1) | 1 | 1.12 | 1.73 | no change | no change
UBE2Q1 (ubiquitin conjugating enzyme E2 Q1) | 2 | 1.03 | 1.23 | no change | no change
UBE2Q1 (ubiquitin conjugating enzyme E2 Q1) | 3 | 0.9 | 0.99 | no change | no change
UBE2Q1 (ubiquitin conjugating enzyme E2 Q1) | 4 | 0.83 | 1.62 | no change | no change
RPL23AP82 (ribosomal protein L23a pseudogene 82) | 1 | 0.98 | 0.93 | no change | no change
RPL23AP82 (ribosomal protein L23a pseudogene 82) | 2 | 0.32 (active) | 0.93 | reduced viability | no change
RPL23AP82 (ribosomal protein L23a pseudogene 82) | 3 | 0.64 | 1.18 | no change | no change
RPL23AP82 (ribosomal protein L23a pseudogene 82) | 4 | 0.94 | 1.48 | no change | no change

Records listed so far whose gene name starts with U or u (4):
gene | reagent no. | viability relative to mock | caspase activity relative to mock | viability hit class | caspase hit class
UBE2Q1 (ubiquitin conjugating enzyme E2 Q1) | 1 | 1.12 | 1.73 | no change | no change
UBE2Q1 (ubiquitin conjugating enzyme E2 Q1) | 2 | 1.03 | 1.23 | no change | no change
UBE2Q1 (ubiquitin conjugating enzyme E2 Q1) | 3 | 0.9 | 0.99 | no change | no change
UBE2Q1 (ubiquitin conjugating enzyme E2 Q1) | 4 | 0.83 | 1.62 | no change | no change

More records follow:
gene | reagent no. | viability relative to mock | caspase activity relative to mock | viability hit class | caspase hit class
RNF186 (ring finger protein 186) | 1 | 0.61 (active) | 3.92 | no change | caspase activation
RNF186 (ring finger protein 186) | 2 | 0.76 | 2.42 | no change | no change
RNF186 (ring finger protein 186) | 3 | 0.88 | 1.48 | no change | no change
RNF186 (ring finger protein 186) | 4 | 0.36 (active) | 2.47 | reduced viability | no change
CASTOR3P (CASTOR family member 3, pseudogene) | 1 | 0.2 (active) | 3.6 | reduced viability | caspase activation
CASTOR3P (CASTOR family member 3, pseudogene) | 2 | 0.41 (active) | 4.53 | reduced viability | caspase activation
CASTOR3P (CASTOR family member 3, pseudogene) | 3 | 0.74 | 1.4 | no change | no change
CASTOR3P (CASTOR family member 3, pseudogene) | 4 | 0.66 | 1.77 | no change | no change
FANCA (FA complementation group A) | 1 | 0.47 (active) | 3.85 | reduced viability | caspase activation
FANCA (FA complementation group A) | 2 | 0.41 (active) | 5.49 | reduced viability | caspase activation
FANCA (FA complementation group A) | 3 | 0.73 (active) | 3.09 | no change | caspase activation
FANCA (FA complementation group A) | 4 | 0.79 (active) | 3.79 | no change | caspase activation
FANCA (FA complementation group A) | 5 | 0.68 (active) | 3.4 | no change | caspase activation
P2RY12 (purinergic receptor P2Y12) | 1 | 1 | 1.32 | no change | no change
P2RY12 (purinergic receptor P2Y12) | 2 | 0.4 (active) | 3.78 | reduced viability | caspase activation
P2RY12 (purinergic receptor P2Y12) | 3 | 0.81 | 1.23 | no change | no change
P2RY12 (purinergic receptor P2Y12) | 4 | 0.89 | 0.97 | no change | no change
